Experimental findings from publication PMC11361910 are described below.

Protein sequences, listed by entry. Tags and fused reporters are not part of them.
UniProt P35222: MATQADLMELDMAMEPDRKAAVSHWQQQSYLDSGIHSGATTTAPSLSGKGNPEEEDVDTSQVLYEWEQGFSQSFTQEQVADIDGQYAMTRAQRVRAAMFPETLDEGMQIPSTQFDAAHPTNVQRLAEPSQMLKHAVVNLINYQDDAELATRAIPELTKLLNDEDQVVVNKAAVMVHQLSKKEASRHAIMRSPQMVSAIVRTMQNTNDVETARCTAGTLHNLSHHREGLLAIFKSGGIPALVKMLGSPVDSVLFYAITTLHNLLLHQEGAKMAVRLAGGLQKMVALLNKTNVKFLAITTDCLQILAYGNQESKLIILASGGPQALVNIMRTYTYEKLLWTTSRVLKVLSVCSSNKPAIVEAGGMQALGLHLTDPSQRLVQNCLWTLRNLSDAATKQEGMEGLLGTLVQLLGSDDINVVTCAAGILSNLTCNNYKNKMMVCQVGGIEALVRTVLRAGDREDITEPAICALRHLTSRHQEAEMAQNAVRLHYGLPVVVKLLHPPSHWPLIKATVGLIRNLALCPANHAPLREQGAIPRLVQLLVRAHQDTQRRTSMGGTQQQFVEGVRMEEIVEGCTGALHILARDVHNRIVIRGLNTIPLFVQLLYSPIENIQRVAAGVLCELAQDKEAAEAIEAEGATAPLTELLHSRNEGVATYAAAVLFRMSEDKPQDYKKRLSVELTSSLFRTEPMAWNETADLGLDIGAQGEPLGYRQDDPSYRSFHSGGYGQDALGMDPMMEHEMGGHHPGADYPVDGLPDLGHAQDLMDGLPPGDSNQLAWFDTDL

No constants are given. Whether binding was seen depends on the method and setting. Binding seen in cells or lysates may run through a third protein. Some entries that bind do so weakly or less than the wild type. For some assays here: Sequences can lack the tags named with a protein.

Assay [1] concerns the target T1, endogenous IL13RA2 (human (endogenous in HemECs)) (UniProt Q14627).
T1 sequence: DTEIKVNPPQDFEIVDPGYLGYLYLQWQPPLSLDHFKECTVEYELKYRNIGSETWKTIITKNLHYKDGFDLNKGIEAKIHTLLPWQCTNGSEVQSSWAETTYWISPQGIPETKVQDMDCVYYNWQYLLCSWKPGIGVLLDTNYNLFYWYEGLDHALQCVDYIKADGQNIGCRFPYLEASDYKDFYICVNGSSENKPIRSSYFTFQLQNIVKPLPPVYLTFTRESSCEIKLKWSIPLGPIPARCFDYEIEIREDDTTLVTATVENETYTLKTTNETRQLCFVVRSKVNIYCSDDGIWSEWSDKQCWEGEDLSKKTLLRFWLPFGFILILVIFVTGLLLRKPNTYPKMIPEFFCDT
Kind of assay: co-IP; HemECs lysates; immunoprecipitation with antibodies to IL13RA2 and β-catenin; endogenous proteins.

A further assay concerns the target T2, IL13RA2 (Flag-tagged) (UniProt Q14627).
T2 sequence: T1 sequence
The experiment in a line: co-IP; HEK293 cells transfected with Flag-tagged IL13RA2 or HA-tagged β-catenin expression vector; protein A/G agarose beads with anti-FLAG and anti-HA added to cell lysates.

With “endogenous β-catenin (from UniProt P35222 1-781)”, in assay [1], the binding entry is on record as “binds”.

Take “β-catenin (HA-tagged) (from UniProt P35222 1-781)”: in the assay with IL13RA2 (Flag-tagged), the binding entry is on record as “binds”.
